## Primary screen of a compound library

Chains of the proteins cited; added tags and fusions are not shown. Residues count along the entry.
UniProt P9WFT3, whole entry: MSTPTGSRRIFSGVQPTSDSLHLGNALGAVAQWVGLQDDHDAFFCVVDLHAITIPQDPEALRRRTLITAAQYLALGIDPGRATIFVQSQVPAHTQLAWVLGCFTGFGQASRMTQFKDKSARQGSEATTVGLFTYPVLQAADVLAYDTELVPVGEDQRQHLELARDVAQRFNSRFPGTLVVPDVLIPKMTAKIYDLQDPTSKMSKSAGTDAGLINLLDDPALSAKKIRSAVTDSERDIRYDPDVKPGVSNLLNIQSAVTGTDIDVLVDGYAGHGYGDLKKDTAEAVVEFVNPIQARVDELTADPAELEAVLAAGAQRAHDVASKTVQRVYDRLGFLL
UniProt Q8IDJ8, 1-583: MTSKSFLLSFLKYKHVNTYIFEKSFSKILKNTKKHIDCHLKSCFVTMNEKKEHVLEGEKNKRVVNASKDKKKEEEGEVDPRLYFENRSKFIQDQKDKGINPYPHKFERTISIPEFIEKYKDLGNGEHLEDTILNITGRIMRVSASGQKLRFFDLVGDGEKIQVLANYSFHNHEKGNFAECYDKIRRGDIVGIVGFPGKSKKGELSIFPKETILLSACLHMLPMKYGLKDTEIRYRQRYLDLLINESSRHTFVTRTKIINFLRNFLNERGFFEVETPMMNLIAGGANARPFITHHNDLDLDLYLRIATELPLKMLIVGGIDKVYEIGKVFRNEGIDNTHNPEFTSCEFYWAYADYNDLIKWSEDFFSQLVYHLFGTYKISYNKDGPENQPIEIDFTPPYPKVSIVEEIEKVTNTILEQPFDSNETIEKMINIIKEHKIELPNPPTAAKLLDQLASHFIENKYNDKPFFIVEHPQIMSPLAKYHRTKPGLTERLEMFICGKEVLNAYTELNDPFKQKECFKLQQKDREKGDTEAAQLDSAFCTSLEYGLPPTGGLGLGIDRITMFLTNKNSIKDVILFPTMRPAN
UniProt P9WPC5, whole entry: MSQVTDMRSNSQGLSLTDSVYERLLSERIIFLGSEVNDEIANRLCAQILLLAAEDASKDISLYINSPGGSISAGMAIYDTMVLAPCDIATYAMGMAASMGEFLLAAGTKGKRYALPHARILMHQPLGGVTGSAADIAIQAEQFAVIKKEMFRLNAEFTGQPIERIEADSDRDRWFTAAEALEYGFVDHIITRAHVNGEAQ
UniProt P9WPC3, whole entry partner: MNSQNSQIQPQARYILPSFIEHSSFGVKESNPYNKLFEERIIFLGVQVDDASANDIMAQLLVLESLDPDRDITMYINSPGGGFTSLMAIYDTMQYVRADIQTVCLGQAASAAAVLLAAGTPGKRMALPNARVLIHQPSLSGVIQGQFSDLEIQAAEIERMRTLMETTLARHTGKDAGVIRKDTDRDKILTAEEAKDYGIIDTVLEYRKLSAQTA

Source: ChEMBL document CHEMBL3988442, “University of Dundee, Small-Polar-MMV Screening Library” (2021).

MtTrpRS: 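Tryptophan-tRNA ligase, Mycobacterium tuberculosis (UniProt P9WFT3). Enzyme assay of tryptophanyl-tRNA synthetase; the read-out is not stated. Tested at 10 µM. Higher most likely means stronger inhibition; the record gives no direction and few retests gave an IC50. Of about 65,000 compounds tested this way, about 64 (0.098%) reached 50% or more in at least one test.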
PfKRS1: 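Enzyme assay of the cytosolic lysyl-tRNA synthetase in 384-well plates, read by luminescence. Target: Lysine-tRNA ligase, Plasmodium falciparum 3D7 (UniProt Q8IDJ8). Concentration: 30 µM. Higher reads as stronger inhibition, judged from the few compounds that gave an IC50. About 69,000 compounds were tested under these conditions; 0.071% (about 49) showed 50% or more at least once.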
ClpP1P2: 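Protease assay of ClpP1P2, read by the AMC dye that it sets free. Target: ClpP1P2, Mycobacterium tuberculosis (UniProt P9WPC5 and UniProt P9WPC3). Tested at 50 µM. Higher reads as stronger inhibition, judged from the few compounds that gave an IC50. Most other retested compounds had strongly negative values. Of about 69,000 compounds tested this way, about 10 (0.015%) reached 50% or more in at least one test.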

Results are given as percent effect.
How 0% and 100% were set is not recorded. Most values in the screen are low, and negative values occur.
Compounds were drawn at random from those tested, without regard to their results.
A dash means the value is not listed here; it may have been measured.

structure	MtTrpRS	PfKRS1	ClpP1P2
CNC(=O)c1cc(-c2ccccc2)nc2ncnn12	-1.147%	6.053%	-0.6057%
O=C(NCC1CCCCC1)c1nnn(-c2ccc(Br)cc2)n1	-2.356%	6.983%	1.904%
O=C(COCc1nc(-c2ccncc2)no1)N1CCOCC1	6.738%	7.736%	-10.56%
O=S(=O)(NC1=NCN(CCc2cccs2)CN1)c1ccc(Cl)cc1	0.3501%	4.316%	-5.44%
N#Cc1ccc(N2CCC3(CCCN(c4ccccn4)C3)C2)nc1 (stereo not drawn)	-0.541%	4.86%	3.363%
O=C(c1ccc(Cn2cnnn2)cc1)N1CC[C@H](CO)[C@H](O)C1	-1.708%	7.365%	5.748%
O=C1NC2(CCNCC2)CC1c1ccncc1 (stereo not drawn)	0.07582%	-1.349%	14.88%
Cn1cc(CNCCn2cccn2)c(-c2cccnc2)n1	1.509%	3.301%	-2.737%
c1ccc(-c2nnc(N3CCCC4(CCOC4)C3)s2)cc1 (stereo not drawn)	-16.35%	3.015%	11.79%
CC(C)NC(=O)N1CC(=O)c2sc(NC3CCCCC3)nc2C1	-	2.838%	0.1975%
OC1(CNCCCN2CCc3ccccc32)CCNC1 (stereo not drawn)	0%	0.5802%	6.337%
O=C(NCc1cccs1)c1nc2c(o1)CN(CC1CC1)C2	-1.044%	4.294%	-10.94%
COc1ccc(C(C)Nc2ncc(C(N)=O)cc2Cl)c(OC)c1 (stereo not drawn)	-2.948%	4.838%	7.436%
CCc1nc2n(n1)CC(Nc1nc(C)cc(N(C)C)n1)CC2 (stereo not drawn)	-4.68%	4.44%	-12.02%
CN(Cc1ccc2c(c1)OCCO2)Cn1nc(C(C)(C)C)ccc1=O	3.039%	5.615%	2.774%
Cc1ccc(=O)n(CC2(O)CCN(Cc3cnc(C)nc3)CC2)n1	-5.1%	-1.079%	2.612%
Cc1cc2nc(CN(C)c3ccccc3)cc(=O)n2o1	-0.4301%	-0.9544%	-14.03%
CCN(CC)CCn1cc(NC2CCSCC2)cn1	-4.796%	3.445%	2.99%
COc1ncccc1CN1C[C@H](C(=O)N2CCCO2)[C@@H]2CCO[C@@H]2C1	-3.996%	3.589%	-11.16%
Cc1cc(C)c(CNC(=O)C(C)Oc2ccccc2C#N)c(=O)[nH]1 (stereo not drawn)	0.719%	7.551%	-18.53%
N#CCCN(Cc1cccnc1)C(=O)c1cc(Cl)c[nH]1	-1.805%	6.738%	-3.962%
CC1CCC(NC(=O)CNC2(c3cccc(Br)c3)CCOCC2)CC1 (stereo not drawn)	-0.9855%	6.483%	-15.93%
COc1ccc(-n2ncc3c2NC(=O)CSC3C(C)C)cc1 (stereo not drawn)	-0.9646%	4.076%	-1.407%
O=C(c1ccc(F)c(F)c1)N1CCCCC1c1nc[nH]n1 (stereo not drawn)	-0.2981%	-1.316%	-8.857%
c1ccc(CN2CCC3(CC2)CCN(Cc2cccs2)C3)nc1	4.351%	7.159%	7.21%
CC(C)(C)c1ccc(C(=O)C2CCCN(C(=O)CNS(C)(=O)=O)C2)cc1 (stereo not drawn)	-0.8163%	2.027%	6.637%
COc1cc(CNc2cc(N3CCCC3CO)ncn2)ccn1 (stereo not drawn)	-2.466%	0.5624%	-11.99%
CNC(=O)CN1CCC(c2nn(C)c(=O)n2-c2ccccc2)CC1	-3.774%	-1.054%	5.172%
CCc1nc2n(n1)CCCC2Nc1nc(C(C)C)ns1 (stereo not drawn)	-2.058%	3.846%	-12.01%
Cn1cc(Cl)c(CN2CCCC(Cn3cc(CO)nn3)C2)n1 (stereo not drawn)	-0.729%	4.186%	-2.839%
O=S(=O)(NCC(c1ccsc1)N1CCCCCC1)c1cccs1 (stereo not drawn)	-5.136%	-2.198%	0.1146%
COc1cc(C(=O)NCCS(=O)(=O)N(C)C)c2ccccc2n1	-2.683%	0.2067%	-8.051%
COc1nc2ccn(CCc3cc(O)nc(C)n3)c(=O)c2cc1C#N	-1.847%	6.08%	-13.55%
N#Cc1ccc(C(=O)N2CCC3(CC2)C(=O)Nc2ccccc23)cn1	1.174%	3.968%	6.642%
O=C(COc1coc(CN2CCOCC2)cc1=O)Nc1ccccc1F	0.3501%	5.989%	-6.525%
CC1CN(C(=O)C2(c3ccc(F)cc3F)CCOCC2)CCO1 (stereo not drawn)	6.458%	-3.277%	0.4122%
O=C(c1cccnc1)N1CCC2(CC1)CNc1c(F)cccc12	-	2.606%	-30.8%
O=C(CN1CCOCC1)Nc1ccc(C(F)(F)F)cc1Cl	-1.715%	-5.542%	11.33%
Oc1ccc(C2Nc3ccccc3C3=NCCCN32)cc1 (stereo not drawn)	-2.824%	2.72%	-522.9%
CCCN(Cc1cnn(C)c1)S(=O)(=O)c1cccc(F)c1C#N	3.084%	4.128%	3.904%

The last 2 entries again:

For Oc1ccc(C2Nc3ccccc3C3=NCCCN32)cc1 (stereo not drawn) the result was MtTrpRS: -2.824%; PfKRS1: 2.72%; ClpP1P2: -522.9%.
For CCCN(Cc1cnn(C)c1)S(=O)(=O)c1cccc(F)c1C#N the result was MtTrpRS: 3.084%; PfKRS1: 4.128%; ClpP1P2: 3.904%.